Results as given in the supplement of paper PMC12067093, “Discovery and optimisation of a covalent ligand for TRIM25 and its application to targeted protein ubiquitination” (Chemical Science, 2025).
The other results are listed elsewhere or left out.

Amino acid sequences for entries named in this document (tags omitted). A change or cut given only in a name is not applied to a line headed by its entry.
UniProt Q13423: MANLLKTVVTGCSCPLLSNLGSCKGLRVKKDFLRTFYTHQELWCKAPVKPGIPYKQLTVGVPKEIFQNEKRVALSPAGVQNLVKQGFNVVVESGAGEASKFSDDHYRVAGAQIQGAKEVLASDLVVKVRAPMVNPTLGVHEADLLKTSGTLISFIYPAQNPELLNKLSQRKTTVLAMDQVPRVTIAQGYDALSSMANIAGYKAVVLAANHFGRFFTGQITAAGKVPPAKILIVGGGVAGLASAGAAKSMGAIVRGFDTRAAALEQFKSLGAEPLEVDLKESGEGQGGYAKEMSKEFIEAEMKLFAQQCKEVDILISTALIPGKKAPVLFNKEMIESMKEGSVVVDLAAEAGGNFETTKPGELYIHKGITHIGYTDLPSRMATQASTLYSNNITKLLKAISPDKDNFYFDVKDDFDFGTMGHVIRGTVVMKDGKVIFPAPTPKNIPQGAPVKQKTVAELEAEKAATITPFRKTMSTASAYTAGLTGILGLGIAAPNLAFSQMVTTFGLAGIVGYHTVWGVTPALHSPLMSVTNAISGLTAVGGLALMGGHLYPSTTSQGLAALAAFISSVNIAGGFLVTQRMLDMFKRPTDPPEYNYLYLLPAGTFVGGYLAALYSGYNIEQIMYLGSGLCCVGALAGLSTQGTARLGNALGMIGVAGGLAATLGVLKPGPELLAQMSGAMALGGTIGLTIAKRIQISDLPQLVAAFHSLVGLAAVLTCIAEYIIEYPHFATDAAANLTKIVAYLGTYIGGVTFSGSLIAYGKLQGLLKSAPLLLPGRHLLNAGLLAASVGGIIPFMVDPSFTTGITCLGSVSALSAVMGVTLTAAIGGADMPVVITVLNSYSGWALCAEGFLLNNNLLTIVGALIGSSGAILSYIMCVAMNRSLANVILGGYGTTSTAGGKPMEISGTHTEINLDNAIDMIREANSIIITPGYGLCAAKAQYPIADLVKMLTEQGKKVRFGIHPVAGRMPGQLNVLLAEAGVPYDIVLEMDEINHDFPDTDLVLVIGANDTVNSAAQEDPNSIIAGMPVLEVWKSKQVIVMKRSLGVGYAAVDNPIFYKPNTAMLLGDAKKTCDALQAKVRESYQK
UniProt Q86WI3: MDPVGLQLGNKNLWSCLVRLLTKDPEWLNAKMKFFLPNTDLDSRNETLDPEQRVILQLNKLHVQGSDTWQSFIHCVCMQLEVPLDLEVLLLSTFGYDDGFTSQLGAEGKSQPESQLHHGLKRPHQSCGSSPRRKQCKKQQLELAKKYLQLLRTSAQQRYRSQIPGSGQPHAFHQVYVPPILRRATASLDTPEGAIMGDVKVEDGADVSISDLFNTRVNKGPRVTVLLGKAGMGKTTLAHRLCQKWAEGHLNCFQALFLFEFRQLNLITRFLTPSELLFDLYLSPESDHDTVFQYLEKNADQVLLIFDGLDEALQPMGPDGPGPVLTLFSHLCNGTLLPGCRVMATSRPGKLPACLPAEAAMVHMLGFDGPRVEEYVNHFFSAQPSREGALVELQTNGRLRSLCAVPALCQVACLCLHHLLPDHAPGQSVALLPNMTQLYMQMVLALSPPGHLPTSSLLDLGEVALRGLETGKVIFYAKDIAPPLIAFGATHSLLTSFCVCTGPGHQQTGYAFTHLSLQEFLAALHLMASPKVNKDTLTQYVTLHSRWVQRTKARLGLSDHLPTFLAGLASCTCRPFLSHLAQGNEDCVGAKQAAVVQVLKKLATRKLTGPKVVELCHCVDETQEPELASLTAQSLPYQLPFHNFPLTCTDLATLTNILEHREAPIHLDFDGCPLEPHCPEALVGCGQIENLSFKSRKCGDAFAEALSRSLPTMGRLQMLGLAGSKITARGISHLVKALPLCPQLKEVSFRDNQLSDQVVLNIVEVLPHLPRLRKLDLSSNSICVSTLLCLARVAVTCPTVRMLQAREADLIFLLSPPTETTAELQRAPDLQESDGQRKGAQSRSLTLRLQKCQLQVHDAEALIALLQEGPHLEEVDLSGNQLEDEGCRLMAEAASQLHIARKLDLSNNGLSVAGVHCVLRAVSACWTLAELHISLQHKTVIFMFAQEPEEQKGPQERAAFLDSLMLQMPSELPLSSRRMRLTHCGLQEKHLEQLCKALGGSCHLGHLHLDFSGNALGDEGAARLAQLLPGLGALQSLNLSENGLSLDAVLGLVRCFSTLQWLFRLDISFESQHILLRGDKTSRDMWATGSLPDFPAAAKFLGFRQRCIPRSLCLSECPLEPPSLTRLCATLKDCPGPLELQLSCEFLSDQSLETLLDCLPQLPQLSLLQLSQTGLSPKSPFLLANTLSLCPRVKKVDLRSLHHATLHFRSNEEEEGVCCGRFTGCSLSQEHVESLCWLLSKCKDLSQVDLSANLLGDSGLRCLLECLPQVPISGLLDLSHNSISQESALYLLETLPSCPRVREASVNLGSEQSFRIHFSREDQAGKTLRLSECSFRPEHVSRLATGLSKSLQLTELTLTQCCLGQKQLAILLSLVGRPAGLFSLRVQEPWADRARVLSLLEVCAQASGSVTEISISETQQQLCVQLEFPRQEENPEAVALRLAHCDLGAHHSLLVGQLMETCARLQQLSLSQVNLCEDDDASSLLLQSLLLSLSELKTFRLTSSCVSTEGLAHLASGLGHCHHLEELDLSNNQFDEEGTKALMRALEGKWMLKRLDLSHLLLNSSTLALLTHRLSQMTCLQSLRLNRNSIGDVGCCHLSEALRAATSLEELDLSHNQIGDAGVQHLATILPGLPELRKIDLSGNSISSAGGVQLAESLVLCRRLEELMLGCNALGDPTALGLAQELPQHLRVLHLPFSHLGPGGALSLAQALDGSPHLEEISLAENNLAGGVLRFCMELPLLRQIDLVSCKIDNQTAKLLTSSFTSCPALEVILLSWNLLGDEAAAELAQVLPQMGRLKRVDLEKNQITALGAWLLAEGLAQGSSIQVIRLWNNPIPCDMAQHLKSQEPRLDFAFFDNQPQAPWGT
UniProt P46459: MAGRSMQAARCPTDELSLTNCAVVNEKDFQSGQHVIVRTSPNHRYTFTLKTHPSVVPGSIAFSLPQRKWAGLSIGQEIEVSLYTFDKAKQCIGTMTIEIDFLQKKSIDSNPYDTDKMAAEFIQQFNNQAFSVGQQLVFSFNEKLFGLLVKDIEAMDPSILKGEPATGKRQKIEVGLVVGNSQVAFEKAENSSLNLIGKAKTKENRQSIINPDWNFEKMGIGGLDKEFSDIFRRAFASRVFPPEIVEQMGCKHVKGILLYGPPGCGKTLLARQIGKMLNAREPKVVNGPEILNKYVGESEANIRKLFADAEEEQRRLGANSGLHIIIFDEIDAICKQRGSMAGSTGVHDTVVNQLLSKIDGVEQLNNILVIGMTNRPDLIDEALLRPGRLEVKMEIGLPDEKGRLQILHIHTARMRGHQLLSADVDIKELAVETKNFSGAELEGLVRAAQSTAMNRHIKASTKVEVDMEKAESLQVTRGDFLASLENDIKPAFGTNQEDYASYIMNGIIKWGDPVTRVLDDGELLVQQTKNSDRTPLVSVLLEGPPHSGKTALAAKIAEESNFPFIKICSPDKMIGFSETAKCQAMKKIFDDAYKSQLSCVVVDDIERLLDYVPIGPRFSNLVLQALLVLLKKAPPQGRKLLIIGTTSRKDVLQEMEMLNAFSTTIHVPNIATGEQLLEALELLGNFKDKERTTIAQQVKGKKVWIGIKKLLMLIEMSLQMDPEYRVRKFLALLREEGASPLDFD
UniProt Q08J23, whole entry, looked up: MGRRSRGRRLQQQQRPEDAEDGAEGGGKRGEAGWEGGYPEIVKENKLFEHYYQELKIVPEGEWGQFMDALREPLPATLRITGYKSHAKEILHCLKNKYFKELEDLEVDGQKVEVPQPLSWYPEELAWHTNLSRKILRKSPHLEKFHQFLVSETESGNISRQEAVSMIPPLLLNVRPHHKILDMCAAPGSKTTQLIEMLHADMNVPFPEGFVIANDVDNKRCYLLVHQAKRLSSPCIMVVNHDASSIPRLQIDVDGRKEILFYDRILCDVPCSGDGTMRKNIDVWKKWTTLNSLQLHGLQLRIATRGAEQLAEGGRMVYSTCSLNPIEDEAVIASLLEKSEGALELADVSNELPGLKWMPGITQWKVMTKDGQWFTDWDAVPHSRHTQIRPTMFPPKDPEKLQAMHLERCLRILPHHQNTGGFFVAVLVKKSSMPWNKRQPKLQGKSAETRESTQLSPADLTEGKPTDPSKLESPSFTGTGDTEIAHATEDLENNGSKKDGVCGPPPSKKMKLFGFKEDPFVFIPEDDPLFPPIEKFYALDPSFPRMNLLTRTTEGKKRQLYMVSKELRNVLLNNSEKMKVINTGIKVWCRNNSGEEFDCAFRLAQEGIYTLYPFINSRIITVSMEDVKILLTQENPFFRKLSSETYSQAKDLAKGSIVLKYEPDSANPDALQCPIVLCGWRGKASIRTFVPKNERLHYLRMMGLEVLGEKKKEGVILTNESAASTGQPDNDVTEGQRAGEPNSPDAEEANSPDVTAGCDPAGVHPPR
UniProt O43847: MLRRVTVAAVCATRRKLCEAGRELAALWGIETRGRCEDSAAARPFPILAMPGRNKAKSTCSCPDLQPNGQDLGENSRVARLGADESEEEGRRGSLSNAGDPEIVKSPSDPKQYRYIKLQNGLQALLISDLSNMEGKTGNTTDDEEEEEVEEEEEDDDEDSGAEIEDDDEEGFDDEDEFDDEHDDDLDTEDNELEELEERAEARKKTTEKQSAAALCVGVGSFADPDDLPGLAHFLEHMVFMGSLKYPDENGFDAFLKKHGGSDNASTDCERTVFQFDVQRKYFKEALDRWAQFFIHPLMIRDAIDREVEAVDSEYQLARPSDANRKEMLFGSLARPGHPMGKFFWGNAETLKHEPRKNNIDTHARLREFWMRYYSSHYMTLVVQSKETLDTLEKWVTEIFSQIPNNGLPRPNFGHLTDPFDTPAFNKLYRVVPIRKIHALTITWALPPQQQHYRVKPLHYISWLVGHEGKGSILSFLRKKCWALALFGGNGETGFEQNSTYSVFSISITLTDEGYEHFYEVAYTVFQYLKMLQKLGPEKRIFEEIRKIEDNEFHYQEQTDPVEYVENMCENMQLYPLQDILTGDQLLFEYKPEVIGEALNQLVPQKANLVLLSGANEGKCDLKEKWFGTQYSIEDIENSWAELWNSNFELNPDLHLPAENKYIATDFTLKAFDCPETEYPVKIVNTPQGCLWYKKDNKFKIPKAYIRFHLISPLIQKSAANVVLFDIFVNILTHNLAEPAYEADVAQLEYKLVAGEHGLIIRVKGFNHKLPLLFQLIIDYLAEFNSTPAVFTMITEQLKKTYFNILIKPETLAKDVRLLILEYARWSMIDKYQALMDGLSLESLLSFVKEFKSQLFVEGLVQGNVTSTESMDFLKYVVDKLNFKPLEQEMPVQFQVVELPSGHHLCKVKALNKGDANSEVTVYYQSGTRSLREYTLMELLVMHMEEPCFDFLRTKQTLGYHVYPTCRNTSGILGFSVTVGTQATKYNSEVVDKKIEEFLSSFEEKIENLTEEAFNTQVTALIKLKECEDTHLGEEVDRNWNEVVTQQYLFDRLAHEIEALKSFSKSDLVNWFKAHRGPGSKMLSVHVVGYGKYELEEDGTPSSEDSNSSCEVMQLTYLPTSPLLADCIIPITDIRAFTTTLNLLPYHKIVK
UniProt Q8TCD5: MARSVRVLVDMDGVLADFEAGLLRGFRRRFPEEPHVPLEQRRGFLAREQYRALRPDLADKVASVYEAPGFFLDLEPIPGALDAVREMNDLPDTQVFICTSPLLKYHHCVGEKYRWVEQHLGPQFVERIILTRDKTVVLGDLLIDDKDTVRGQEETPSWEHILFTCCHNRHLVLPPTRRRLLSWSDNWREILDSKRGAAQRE
UniProt O60551: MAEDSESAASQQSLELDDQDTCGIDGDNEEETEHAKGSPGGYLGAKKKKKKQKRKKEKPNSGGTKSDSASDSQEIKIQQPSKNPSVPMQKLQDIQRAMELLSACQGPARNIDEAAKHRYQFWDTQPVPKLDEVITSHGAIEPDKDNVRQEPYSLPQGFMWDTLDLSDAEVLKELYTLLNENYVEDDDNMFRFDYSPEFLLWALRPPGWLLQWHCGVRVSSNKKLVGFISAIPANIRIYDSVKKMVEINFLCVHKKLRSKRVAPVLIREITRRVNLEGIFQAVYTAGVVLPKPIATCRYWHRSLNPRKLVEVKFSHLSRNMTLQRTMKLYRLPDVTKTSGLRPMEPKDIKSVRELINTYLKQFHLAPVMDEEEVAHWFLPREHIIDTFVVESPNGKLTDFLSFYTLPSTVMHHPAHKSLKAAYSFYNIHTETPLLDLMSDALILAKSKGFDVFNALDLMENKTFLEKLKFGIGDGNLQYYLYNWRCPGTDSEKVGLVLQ
UniProt Q8WV22: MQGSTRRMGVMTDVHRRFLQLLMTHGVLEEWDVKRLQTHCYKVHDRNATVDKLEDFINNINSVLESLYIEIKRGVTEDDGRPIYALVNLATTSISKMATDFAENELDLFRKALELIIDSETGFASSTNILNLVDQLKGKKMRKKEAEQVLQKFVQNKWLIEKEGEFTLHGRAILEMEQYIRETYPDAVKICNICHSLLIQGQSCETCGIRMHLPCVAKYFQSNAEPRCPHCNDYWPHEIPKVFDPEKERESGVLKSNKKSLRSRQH

Compound: CC1Cc2ccccc2N1C(=O)C1CCCN(C1)C(=O)CCl (mixture of isomers) [TRIM25 ligand 11 (diastereomer mixture)]
Assay: probe-labelled cysteine peptide fold change vs DMSO (competition) (log2 fold change); higher = less target engagement (more negative = stronger competition)
Details: THP-1, incubation time: 4 h
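Also: competitive chemoproteomic profiling in live THP-1 cells with an iodoacetamide desthiobiotin (IA-DTB) probe, comparing probe-labelled peptide intensities in compound-treated cells against DMSO-treated controls.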

Row | Target | probe-labelled cysteine peptide fold change (10 µM) | probe-labelled cysteine peptide fold change (50 µM)
1 | NOS1AP_O75052_31_IPLHNEDAFQHGICFEAK (UniProt O75052) | -0.0491 | 0.0277
2 | NNT_Q13423_1073_KTCDALQAK (UniProt Q13423) | -0.208 | -0.287
3 | NLRC5_Q86WI3_1671_RLEELMLGCNALGDPTALGLAQELPQHLR (UniProt Q86WI3) | 0.0768 | -0.145
4 | NOP14_P78316_457_CNHPSLAEGNK (UniProt P78316) | 0.352 | -0.0471
5 | NOL6_Q9H6R4_665_CYDDLSR (UniProt Q9H6R4) | 0.115 | 7.13e-05
6 | NSF_P46459_599_SQLSCVVVDDIER (UniProt P46459) | 0.148 | -0.0494
7 | NMD3_Q96D46_250_STFSVEIVPICK (UniProt Q96D46) | 0.0106 | 0.0581
8 | NKRF_O15226_242_LLTDGYACEVR (UniProt O15226) | -0.0173 | 0.14
9 | NKTR_P30414_9_GAQDRPQCHFDIEINREPVGR (UniProt P30414) | -0.165 | 0.518
10 | NSUN2_Q08J23_235_RLSSPCIMVVNHDASSIPR (UniProt Q08J23) | 0.0184 | -0.0595
11 | NRDC_O43847_966_QTLGYHVYPTCR (UniProt O43847) | 0.0395 | 0.0521
12 | NSMAF_Q92636_809_EGTVNIWDLTTATLMHQIPCHSGIVCDTAFSPDSR (UniProt Q92636) | -0.431 | 0.3
13 | NSF_P46459_11+21_CPTDELSLTNCAVVNEK (UniProt P46459) | 0.00668 | -0.163
14 | NLN_Q9BYT8_451+458_YNHAACFGLQPGCLLPDGSR (UniProt Q9BYT8) | 0.154 | -0.1
15 | NR2F6_P10588_316_AIALFTPDACGLSDPAHVESLQEK (UniProt P10588) | -0.0262 | -0.322
16 | NRDC_O43847_1027_LKECEDTHLGEEVDR (UniProt O43847) | 0.0616 | -0.176
17 | NOTCH1_P46531_1218_GTQGVHCEINVDDCNPPVDPVSR (UniProt P46531) | 0.186 | -0.0677
18 | NRDE2_Q9H7Z3_900_AYEHALQDCLGDSCVSNPAPTDSCSR (UniProt Q9H7Z3) | 0.22 | 0.368
19 | NRBF2_Q96F24_155_SEPAEPCIGSK (UniProt Q96F24) | -0.177 | -0.199

Row | Target | probe-labelled cysteine peptide fold change (10 µM) | probe-labelled cysteine peptide fold change (50 µM)
20 | NIT2_Q9NQR4_76_ECSIYLIGGSIPEEDAGK (UniProt Q9NQR4) | 0.174 | 0.194
21 | NNT_Q13423_1073_TCDALQAK (UniProt Q13423) | -0.0433 | -0.145
22 | NOL8_Q76FK4_630_HEDPSIISMEDGSPYVNGSLGEVTPCQHAK (UniProt Q76FK4) | 0.00702 | -0.325
23 | NOL11_Q9H8H0_368_HSQDPGTHVVSHFVNWETPQGCGLGFQNSEQSR (UniProt Q9H8H0) | 0.0119 | -0.152
24 | NOC2L_Q9Y3T9_585_VQENSAYICSR (UniProt Q9Y3T9) | -0.11 | -0.431
25 | NOP9_Q86U38_123_TGSEMLQELLGFSPLKPLCR (UniProt Q86U38) | -0.17 | -0.294
26 | NPC1_O15118_1261_SCATEER (UniProt O15118) | -0.127 | -0.00549
27 | NLRC5_Q86WI3_917_KLDLSNNGLSVAGVHCVLR (UniProt Q86WI3) | -0.196 | 0.0138
28 | NSUN4_Q96CB9_258_VLVDVPCTTDR (UniProt Q96CB9) | -0.234 | -0.0205
29 | NR2C2AP_Q86WQ0_76_GCLEGSQGTQALHK (UniProt Q86WQ0) | 0.166 | 0.0754
30 | NPEPL1_Q8NDH3_189_IVDTPCNEMNTDTFLEEINK (UniProt Q8NDH3) | -0.0982 | 0.0945
31 | NOTCH2_Q04721_870_CTIDIDECISK (UniProt Q04721) | -0.0192 | 0.0735
32 | NSRP1_Q9H0G5_232_CILQTDVK (UniProt Q9H0G5) | 0.167 | -0.0939
33 | NT5C_Q8TCD5_98_EMNDLPDTQVFICTSPLLK (UniProt Q8TCD5) | -0.0445 | -0.197
34 | NSUN2_Q08J23_221_CYLLVHQAK (UniProt Q08J23) | -0.00755 | 0.0474
35 | NLRX1_Q86UT6_767_KLGLQLNSLGPEACK (UniProt Q86UT6) | -0.0963 | -0.00779
36 | NMT2_O60551_485_CPGTDSEK (UniProt O60551) | -0.0282 | -0.0411
37 | NRDE2_Q9H7Z3_1119_ALQNCPWAK (UniProt Q9H7Z3) | 0.118 | -0.0837
38 | NSMCE1_Q8WV22_207_ICNICHSLLIQGQSCETCGIR (UniProt Q8WV22) | -0.0916 | 0.0523
